Reference: patent publication US6573271B2, “Method of preventing proliferation of retinal pigment epithelium by retinoic acid receptor agonists” (John Hopkins University School of Medicine, priority 1995, dated 2003)
At least one compound was matched to its structure with a doubt left.

Tested on: human RPE cells
Assay: [3H]thymidine incorporation / proliferation of cultured human RPE cells
Conditions: FIG. 3, alone

C[C@@H]1C[C@H]2[C@@H]3CCC4=CC(=O)C=C[C@]4(C)[C@@]3(F)[C@@H](O)C[C@]2(C)[C@@]1(O)C(=O)CO [Dexamethasone, dexamethasone, reference compound]
effect on RPE cell proliferation, agent alone: inhibited RPE cell proliferation
